According to the supplement of paper PMC11006884:
This is a selection; strong and weak results do not stand in their true shares.

The targets below were run with COC(=O)C#Cc1ccccc1 [methyl 3-phenylpropiolate] (assay: log2 ratio of iodoacetamide-alkyne labeling of the cysteine site, DMSO over compound (competition); higher = stronger covalent engagement of the cysteine by the compound, active = 1 or more). Conditions: 500 µM; treatment time 1 h; system: HEK293T cell lysate.
Method in brief: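 Three replicates, each with duplicate channels, were prepared from HEK293T lysate (2 mg/mL) treated with vehicle or electrophile at 500 µM for 1 h at ambient temperature. Iodoacetamide alkyne was then applied for 1 h, and samples were clicked to sCIP-TMT reagents, pooled, trypsin-digested overnight at 37 °C, enriched on streptavidin, acid-eluted and analysed on Orbitrap Eclipse LC-MS/MS with FAIMS, with FragPipe quantification. The log2 competition ratio per cysteine is the mean control-channel divided by the mean compound-channel reporter intensity. Cysteines quantified in only one replicate were left out.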

Target	log2 ratio of iodoacetamide-alkyne labeling
UniProt Q9HBK9_C32	active: 1.1
SAR1A C102 (UniProt Q9NR31)	inactive: -0.125
MDN1 C3492 (UniProt Q9NU22)	inactive: 0.35
CNOT10 C633 (UniProt Q9H9A5)	inactive: 0.175
RMI1 C268 (UniProt Q9H9A7)	inactive: 0.215
XPO5 C941 (UniProt Q9HAV4)	inactive: 0.0901
HEATR1 C49 (UniProt Q9H583)	inactive: -0.0715
ACAD9 C179 (UniProt Q9H845)	inactive: 0.0482
EXOSC4 C74 (UniProt Q9NPD3)	inactive: 0.0424
RAVER2 C362 (UniProt Q9HCJ3)	inactive: 0.837
UNC45A C420 (UniProt Q9H3U1)	inactive: 0.56
UniProt Q9NR48_C747	inactive: -0.0788
DDX21 C291 (UniProt Q9NR30)	inactive: 0.356
MRPL46 C52 (UniProt Q9H2W6)	inactive: 0.499
GEMIN7 C121 (UniProt Q9H840)	inactive: 0.108
XPO5 C736 (UniProt Q9HAV4)	inactive: 0.176
MED4 C162 (UniProt Q9NPJ6)	inactive: 0.318
XAB2 C117 (UniProt Q9HCS7)	inactive: 0.234
FARSB C76 (UniProt Q9NSD9)	inactive: 0.183
LUC7L C44 (UniProt Q9NQ29)	inactive: 0.236
MDN1 C172 (UniProt Q9NU22)	inactive: 0.0689
OLA1 C55 (UniProt Q9NTK5)	inactive: 0.0695

Given as a markdown table: entries from further up.

| Target | log2 ratio of iodoacetamide-alkyne labeling |
| --- | --- |
| DDX21 C291 (UniProt Q9NR30) | inactive: 0.356 |
| MRPL46 C52 (UniProt Q9H2W6) | inactive: 0.499 |
| GEMIN7 C121 (UniProt Q9H840) | inactive: 0.108 |
| XPO5 C736 (UniProt Q9HAV4) | inactive: 0.176 |
